Laboratory results taken from article PMC12002053.
These are yes or no findings as the source states them, for the method shown. In cells and extracts the contact can be indirect. Some results given as binding are weak or reduced against the parent protein; the word gives no strength. For part of these data: Sequences can lack the tags named with a protein.

The chains behind the UniProt entries cited, without tags or fusion partners. Where a name states a change or a piece, a line headed by the entry shows the natural chain unless it says otherwise. A line that says so, or that is headed by a name, gives the form on record, which may keep a tag or linker.
EGFP-tagged CNBP (human CNBP CDS with an N-terminal EGFP tag), expressed in NIH/3T3 cells (P62633, form named): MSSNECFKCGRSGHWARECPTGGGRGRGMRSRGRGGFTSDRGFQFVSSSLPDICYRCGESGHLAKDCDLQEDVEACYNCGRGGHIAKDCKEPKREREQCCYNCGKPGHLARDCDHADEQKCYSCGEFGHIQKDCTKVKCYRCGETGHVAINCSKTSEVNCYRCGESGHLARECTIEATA

What was measured:
[1] = target: EGFP-tagged CNBP (human CNBP CDS with an N-terminal EGFP tag), expressed in HEK293 cells (human) (UniProt P62633); experiment: co-IP; as a1, but cleared HEK293 lysates incubated with RNaseA (50 μg/ml) and RNase If (300 μg/ml) for 30 min at RT before GFP-Trap beads
[2] = target: EGFP-tagged CNBP (human CNBP CDS with an N-terminal EGFP tag), expressed in HEK293 cells (human) (UniProt P62633); experiment: co-IP; EGFP-CNBP captured on GFP-Trap magnetic agarose beads from cleared lysates of HEK293 cells co-expressing KIF1C-mCherry; 50mM Tris pH 7.4, 1% NP-40, 150mM NaCl, 10mM MgCl2, 10% glycerol; 1 h at 4°C; immunoblot
[3] = target: EGFP-tagged CNBP (human CNBP CDS with an N-terminal EGFP tag), expressed in NIH/3T3 cells (human) (UniProt P62633); experiment: co-IP; EGFP-CNBP captured on GFP-Trap magnetic agarose beads from lysates of transfected NIH/3T3 cells; endogenous Kif1c detected by immunoblot

Row | Binder | binding [1] | binding [2] | binding [3]
1 | mCherry-tagged KIF1C (human KIF1C CDS with a C-terminal mCherry tag) (protein, UniProt O43896 1-1103) MAGASVKVAVRVRPFNARETSQDAKCVVSMQGNTTSIINPKQSKDAPKSFTFDYSYWSHTSTEDPQFASQQQVYRDIGEEMLLHAFEGYNVCIFAYGQTGAGKSYTMMGRQEPGQQGIVPQLCEDLFSRVSENQSAQLSYSVEVSYMEIYCERVRDLLNPKSRGSLRVREHPILGPYVQDLSKLAVTSYADIADLMDCGNKARTVAATNMNETSSRSHAVFTIVFTQRCHDQLTGLDSEKVSKISLVDLAGSERADSSGARGMRLKEGANINKSLTTLGKVISALADMQSKKRKSDFIPYRDSVLTWLLKENLGGNSRTAMIAALSPADINYEETLSTLRYADRTKQIRCNAIINEDPNARLIRELQEEVARLRELLMAQGLSASALEGLKTEEGSVRGALPAVSSPPAPVSPSSPTTHNGELEPSFSPNTESQIGPEEAMERLQETEKIIAELNETWEEKLRKTEALRMEREALLAEMGVAVREDGGTVGVFSPKKTPHLVNLNEDPLMSECLLYHIKDGVTRVGQVDMDIKLTGQFIREQHCLFRSIPQPDGEVVVTLEPCEGAETYVNGKLVTEPLVLKSGNRIVMGKNHVFRFNHPEQARLERERGVPPPPGPPSEPVDWNFAQKELLEQQGIDIKLEMEKRLQDLENQYRKEKEEADLLLEQQRLYADSDSGDDSDKRSCEESWRLISSLREQLPPTTVQTIVKRCGLPSSGKRRAPRRVYQIPQRRRLQGKDPRWATMADLKMQAVKEICYEVALADFRHGRAEIEALAALKMRELCRTYGKPDGPGDAWRAVARDVWDTVGEEEGGGAGSGGGSEEGARGAEVEDLRAHIDKLTGILQEVKLQNSSKDRELQALRDRMLRMERVIPLAQDHEDENEEGGEVPWAPPEGSEAAEEAAPSDRMPSARPPSPPLSSWERVSRLMEEDPAFRRGRLRWLKQEQLRLQGLQGSGGRGGGLRRPPARFVPPHDCKLRFPFKSNPQHRESWPGMGSGEAPTPLQPPEEVTPHPATPARRPPSPRRSHHPRRNSLDGGGRSRGAGSAQPEPQHFQPKKHNSYPQPPQPYPAQRPPGPRYPPYTTPPRMRRQRSAPDLKESGAAV | binds | binds | –
2 | endogenous Kif1c of NIH/3T3 cells (protein, UniProt O35071 1-1100) MAGASVKVAVRVRPFNARETSQDAKCVVSMQGNTTSIINPKQSKDAPKSFTFDYSYWSHTSVEDPQFASQQQVYRDIGEEMLLHAFEGYNVCIFAYGQTGAGKSYTMMGRQEPGQQGIVPQLCEDLFSRVNVNQSAQLSYSVEVSYMEIYCERVRDLLNPKSRGSLRVREHPILGPYVQDLSKLAVTSYADIADLMDCGNKARTVAATNMNETSSRSHAVFTIVFTQRSHDQLTGLDSEKVSKISLVDLAGSERADSSGARGMRLKEGANINKSLTTLGKVISALADLQSKKRKSDFIPYRDSVLTWLLKENLGGNSRTAMIAALSPADINYEETLSTLRYADRTKQIRCNAVINEDPNARLIRELQEEVARLRDLLMAQGLSASALGGLKVEEGSPGGVLPPASSPPAPASPSSPPPHNGELEPSFSPSAEPQIGPEEAMERLQETEKIIAELNETWEEKLRKTEALRMEREALLAEMGVAVREDGGTVGVFSPKKTPHLVNLNEDPLMSECLLYHIKDGVTRVGQVDVDIKLTGQFIREQHCLFRSIPQPDGEVMVTLEPCEGAETYVNGKLVTEPLVLKSGNRIVMGKNHVFRFNHPEQARLERERGVPPPPGPPSEPVDWNFAQKELLEQQGIDIKLEMEKRLQDLENQYRKEKEEADLLLEQQRLYADSDSGEDSDKRSCEESWRLISSLREQLPPTTVQNIVKRCGLPSSGKRRAPRRVYQIPQRRRLQGKDPRWATMADLKMQAVKEICYEVALADFRHGRAEIEALAALKMRELCRTYGKPEGPGDAWRAVARDVWDTVGEEEGCGGGGGGSEEGARGAEVEDLRAHIDKLTGILQEVKLQNSSKDRELQALRDRMLRMERVIPLTQDLEDDNDESGLVTWAPPEGPEAVEETVPNDHSPAVRPTSPPLSSWERVSRLMEEDPAFRRGRLRWLKQEQLRLQGLQGAGGRGGGLRRPPARFVPPHDCKLRFPFKSNPQHRESWPGMGSGEAPAPQPPEEVTVPPAPPNRRPPSPRRPHRSRRNSLDGGSRSRGGGSTQPEPQHLRPQKHNGYPQQPQPSPAQRPGPRYPPYTTPPRMRRQRSAPDLKESGAAV | – | – | binds
